± gives the standard deviation. Some of the results follow. The uncertainty is large for many entries.
Tested on: EfPiwi piRISC loaded with L1MC piRNA (26 nt)
Assay: pre-steady-state target cleavage rate (min^-1); guide: L1MC piRNA 5'p-UAACUAAAUACUAUGCAAGCUGUAGG; MIWI and MILI are mouse PIWI proteins and EfPiwi is from a freshwater sponge; tags in brackets are library labels; higher = faster piRNA-guided slicing of the target
Conditions: auxiliary factor: 500 nM Ephydatia muelleri Gtsf1
Method: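 Cleave-'n-Seq: a library of target RNAs (target site in constant flanks) at […] was incubated with 1 nM active freshwater sponge Ephydatia fluviatilis Piwi piRISC (synthetic 5'-monophosphorylated piRNA guide) with or without 500 nM EmGtsf1 at 33 °C for 1 min to 16 h. Uncleaved targets were sequenced and the pooled three trials fitted to a burst-and-steady-state model to give the pre-steady-state cleavage rate (min^-1). Sequence is the target site only. Fits with R² ≤ 0 are excluded.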

Sequence | pre-steady-state target cleavage rate
UCCUGGUACUGCUUGCAUAGUAUUUUCAAA | 0.00285 ± 0.0022
UCCUGGAUCAGCUUGGUUAGUAUUUUCAAA | 0.000281 ± 0.019
UCCUGGAUGAGCUUGCAUAGUAUUAACUUA | 0.0012 ± 0.0038
UCCUGGAUGUCGUUGCUUAGUAAUUAGUUA | 0.000288 ± 0.015
UCCUGGAUGUCCUUGCAUAGUAUUUAGUUG [g2:g19:cont:t1G] | 0.00478 ± 0.0018
UCCUGGAUGUCCUUGCAUAGUAAAUAGUUA | 0.000864 ± 0.0084
UCCUGGAUGUCGAACGAUACAUUUUAGUUA | < 0.0001
UCCUGGAUGUCGAACGAUAGUAUUUAGGUA | < 0.0001
UCCUGCUACACCUUGCAUAGUAUUUAGAUA | 0.00254 ± 0.0016
UCCUGCUACAGCUAGCAUAGAAUUUAGUUA | 0.00327 ± 0.0022
UCCUGGAUGAGCAAGCAUAGUAUUUACAAA | 0.000668 ± 0.005
UCCUGCUACAGGUUGCAUAGUAUUUACUUA | 0.000612 ± 0.0054
UCCUGCUACUGCUUGCAUAGUAUUUACUUA | 0.00156 ± 0.0024
UCCUGCUAAAGCUUGCAUAGUAUUUAGUUA | 0.00411 ± 0.0014
UCCUGGAUCAGCAACCAUAGUAUUUAGUAA | 0.000441 ± 0.0078
UCCUGGUACAGCUUGCAUAGUAAUUAGAAA | 0.0016 ± 0.0049
UCCUGGAUCAGCUUCGAUAGUAUUUACAAA | 0.00102 ± 0.0072
UCCUGGAUGUCGAACGUAAUGUAUUUAGUUA | 0.000221 ± 0.026
UCCUCCUAGAGCUUGCUUAGUAUUUAGUUA | 0.0217 ± 0.0064
UCCUGGAUGUGCUUGCAUAGUAUUUUGAUA | 0.0024 ± 0.0034
UCCUGGAUGAGCUUGCAUUCAAUUUAGAAA | 0.000281 ± 0.012
UCCUGGAACAGCUUGCAAAGUAUUUAGAUA | 0.0036 ± 0.0024
UCCUGGAUGUGCUUGCAUAGUAUUUAGUUC [g2:g20:cont:t1C] | 0.0175 ± 0.0048
UCCUGGAACAGCUUGCAUAGUAUUUUGAAA | 0.00294 ± 0.0022

Same assay, conditions: auxiliary factor: none (no Gtsf1)

Sequence | pre-steady-state target cleavage rate
UCCUGGUACUGCUUGCAUAGUAUUUUCAAA | 0.000605 ± 0.014
UCCUGGAUCAGCUUGGUUAGUAUUUUCAAA | 0.000236 ± 0.041
UCCUGGAUGAGCUUGCAUAGUAUUAACUUA | 0.000335 ± 0.024
UCCUGGAUGUCGUUGCUUAGUAAUUAGUUA | 0.000173 ± 0.047
UCCUGGAUGUCCUUGCAUAGUAUUUAGUUG [g2:g19:cont:t1G] | 0.000557 ± 0.011
UCCUGCUACACCUUGCAUAGUAUUUAGAUA | 0.000507 ± 0.013
UCCUGCUACAGCUAGCAUAGAAUUUAGUUA | 0.000941 ± 0.0061
UCCUGGAUGAGCAAGCAUAGUAUUUACAAA | 0.000679 ± 0.018
UCCUGCUACUGCUUGCAUAGUAUUUACUUA | 0.00011 ± 0.056
UCCUGCUAAAGCUUGCAUAGUAUUUAGUUA | 0.000139 ± 0.019
UCCUGGAUCAGCUUCGAUAGUAUUUACAAA | 0.000109 ± 0.043
UCCUGGAUGUCGAACGUAAUGUAUUUAGUUA | < 0.0001
UCCUGGAUGUGCUUGCAUAGUAUUUUGAUA | 0.000773 ± 0.011
UCCUGGAACAGCUUGCAAAGUAUUUAGAUA | 0.000471 ± 0.014
UCCUGGAUGUGCUUGCAUAGUAUUUAGUUC [g2:g20:cont:t1C] | 0.0019 ± 0.0057
UCCUGGAACAGCUUGCAUAGUAUUUUGAAA | 0.000525 ± 0.012

From the supplement of paper PMC10338343
